Experimental data: PubChem BioAssay AID330 (DTP/NCI, 2004)
The list does not hold the whole screen: it gathers tests that were run many times, whatever their T/C, doses with no T/C, and many T/C values between a quarter and a half above the control. Further doses and runs are listed elsewhere. T/C gives the treated animals as a percentage of the vehicle group. Some doses have a count of surviving animals in place of a T/C: the source files T/C as zero there, which appears to mark a toxic dose or a test without result, not a measured value. Some doses without a T/C left all or most animals alive at the check, yet need not have been tolerated: the source hardly ever lists a survival T/C far under the control, and the zero likely stands for such cases as well. Counts of survivors are from the toxicity check (mostly the fifth day) where no day follows; animals may have died later. Schedule codes are those of the source, taken here to give the interval after Q, in days (D) or hours (H), and the number of doses after X. Some doses were run more than once; the values are given in rising order. For survival time, this PubChem deposit counts one and a half times the control or more as active, and values a quarter to a half above the control carry no call in these data; other NCI protocols may use other cut-offs. Some T/C values carry the count of animals alive at the toxicity check (mostly the fifth day); without a count, all were alive then.

Tested on: P388 leukemia ip, CD2F1 mice, survival T/C
Assay: NCI In Vivo Anticancer Drug Screen. Data for tumor model P388 Leukemia (intraperitoneal) in CD2F1 (CDF1) mice
Details: T/C endpoint: median survival time, higher T/C = longer survival
[1] = dose: 50.0 mg/kg/injection, schedule: Q01DX009 (ip), vehicle: saline with Tween-80
[2] = dose: 12.5 mg/kg/injection, schedule: Q01DX005 (ip), vehicle: saline with Tween-80
[3] = dose: 25.0 mg/kg/injection, schedule: Q01DX005 (ip), vehicle: saline with Tween-80
[4] = dose: 50.0 mg/kg/injection, schedule: Q01DX005 (ip), vehicle: saline with Tween-80
[5] = dose: 100.0 mg/kg/injection, schedule: Q01DX005 (ip), vehicle: saline with Tween-80
[6] = dose: 200.0 mg/kg/injection, schedule: Q01DX005 (ip), vehicle: saline with Tween-80
[7] = dose: 100.0 mg/kg/injection, schedule: Q01DX009 (ip), vehicle: Klucel (hydroxypropylcellulose) (HPC)
[8] = dose: 200.0 mg/kg/injection, schedule: Q01DX009 (ip), vehicle: Klucel (hydroxypropylcellulose) (HPC)
[9] = dose: 50.0 mg/kg/injection, schedule: Q01DX009 (ip), vehicle: saline
[10] = dose: 2.0 mg/kg/injection, schedule: Q01DX009 (ip), vehicle: saline + alcohol
[11] = dose: 100.0 mg/kg/injection, schedule: Q01DX009 (ip), vehicle: saline
[12] = dose: 120.0 mg/kg/injection, schedule: Q01DX005 (ip), vehicle: Klucel (hydroxypropylcellulose) (HPC)
[13] = dose: 240.0 mg/kg/injection, schedule: Q01DX005 (ip), vehicle: Klucel (hydroxypropylcellulose) (HPC)

SMILES: O=C[O-].[NH2-].[NH2-].[NH2-].[NH2-].[NH2-].[O-][Cl+3]([O-])([O-])O.[Ru+8]
- T/C (dose: 12.5 mg/kg/injection, schedule: Q04DX003 (ip), vehicle: saline): 128 % of control
- T/C (dose: 12.5 mg/kg/injection, schedule: Q04DX003 (ip), vehicle: water): 126 % of control
- survivor count (dose: 25.0 mg/kg/injection, schedule: Q04DX003 (ip), vehicle: saline): 6 of 6
- survivor count (dose: 25.0 mg/kg/injection, schedule: Q04DX003 (ip), vehicle: water): 5 of 6
- survivor count (dose: 50.0 mg/kg/injection, schedule: Q04DX003 (ip), vehicle: water): 0 of 6
- survivor count (dose: 100.0 mg/kg/injection, schedule: Q04DX003 (ip), vehicle: water): 0 of 6
- survivor count (dose: 200.0 mg/kg/injection, schedule: Q04DX003 (ip), vehicle: water): 0 of 6

SMILES: N=C(N)SCCCCCCCCCCSC(=N)N
- survivor count [1]: 2 of 6
- survivor count (dose: 100.0 mg/kg/injection, schedule: Q01DX009 (ip), vehicle: saline with Tween-80): 0 of 6 and 3 of 6

SMILES: COc1cc(NCCCN=C(N)N)c2ncccc2c1
- survivor count [2]: 3 of 5
- survivor count [3]: 0 of 5
- survivor count [4]: 0 of 5
- survivor count [5]: 0 of 5
- survivor count [6]: 0 of 5

SMILES: COc1ccc(CNCCCSC)cc1
- survivor count (dose: 200.0 mg/kg/injection, schedule: Q01DX005 (ip), vehicle: saline): 0 of 6

SMILES: CCOC(=O)NC(=S)c1ccc[nH]1
- survivor count [7]: 3 of 6
- survivor count [8]: 0 of 6

SMILES: NC(=S)N/N=C1/CCCC/C1=N/O
- survivor count (dose: 240.0 mg/kg/injection, schedule: Q01DX005 (ip), vehicle: saline with Tween-80): 0 of 6

SMILES: CS/C(=C/c1ccc2ccccc2[n+]1C)N1CCCCC1
- survivor count (dose: 3.12 mg/kg/injection, schedule: Q01DX005 (ip), vehicle: saline with Tween-80): 0 of 5
- survivor count (dose: 6.25 mg/kg/injection, schedule: Q01DX005 (ip), vehicle: saline with Tween-80): 0 of 6
- survivor count [2]: 0 of 6
- survivor count [3]: 0 of 6
- survivor count [4]: 0 of 6
- survivor count [5]: 0 of 6
- survivor count [6]: 0 of 6

SMILES: CCCCCCN(CCCCCC)P(=O)(N1CC1)N1CC1
- T/C (dose: 25.0 mg/kg/injection, schedule: Q01DX009 (ip), vehicle: saline): 131 % of control
- survivor count [9]: 2 of 6
- T/C (dose: 50.0 mg/kg/injection, schedule: Q04DX003 (ip), vehicle: saline with Tween-80): 127 % of control
- survivor count (dose: 100.0 mg/kg/injection, schedule: Q04DX003 (ip), vehicle: saline with Tween-80): 5 of 6
- survivor count (dose: 200.0 mg/kg/injection, schedule: Q04DX003 (ip), vehicle: saline with Tween-80): 1 of 6
- survivor count (dose: 400.0 mg/kg/injection, schedule: Q04DX003 (ip), vehicle: saline with Tween-80): 0 of 6

SMILES: CCN(CC)c1ccc2cc(S(=O)(=O)c3ccc(Cl)cc3)c(=O)oc2c1
- survivor count [6]: 5 of 6

SMILES: COC(=O)[C@@]12OC[C@]34[C@H]([C@@H](O)[C@@H]1O)[C@@]1(C)CC(=O)C(O)=C(C)[C@@H]1C[C@H]3OC(=O)[C@H](OC(=O)CC(C)C)[C@@H]24
- T/C (dose: 0.25 mg/kg/injection, schedule: Q01DX009 (ip), vehicle: saline + alcohol): 134 % of control
- T/C (dose: 0.5 mg/kg/injection, schedule: Q01DX009 (ip), vehicle: saline + alcohol): 129 [5 of 6 alive] and 137 % of control
- T/C (dose: 1.0 mg/kg/injection, schedule: Q01DX009 (ip), vehicle: saline + alcohol): 144 and 146 % of control
- T/C [10]: 134 % of control [5 of 6 alive]
- survivor count [10]: 3 of 6
- survivor count (dose: 4.0 mg/kg/injection, schedule: Q01DX009 (ip), vehicle: saline + alcohol): 0 of 6

SMILES: CCOC(=O)c1c(C#N)c2ccccc2n1O
- survivor count (dose: 200.0 mg/kg/injection, schedule: Q01DX001 (ip), vehicle: saline with Tween-80): 2 of 6

SMILES: c1ccc2c(NCC3CCN(c4c5ccccc5nc5ccccc45)CC3)c3ccccc3nc2c1
- survivor count (dose: 100.0 mg/kg/injection, schedule: Q04DX002 (ip), vehicle: saline with Tween-80): 6 of 6
- survivor count (dose: 200.0 mg/kg/injection, schedule: Q04DX002 (ip), vehicle: saline with Tween-80): 1 of 6
- survivor count (dose: 400.0 mg/kg/injection, schedule: Q04DX002 (ip), vehicle: saline with Tween-80): 0 of 6

SMILES: NC(=S)N/N=C/c1cn(-c2ccc([N+](=O)[O-])cc2)cn1
- survivor count (dose: 100.0 mg/kg/injection, schedule: Q04DX003 (ip), vehicle: Klucel (hydroxypropylcellulose) (HPC)): 2 of 6
- survivor count (dose: 200.0 mg/kg/injection, schedule: Q04DX003 (ip), vehicle: Klucel (hydroxypropylcellulose) (HPC)): 0 of 6
- survivor count (dose: 400.0 mg/kg/injection, schedule: Q04DX003 (ip), vehicle: Klucel (hydroxypropylcellulose) (HPC)): 0 of 6

SMILES: CC(=O)N1CCCC1C(=O)O (stereo unspecified)
- survivor count (dose: 200.0 mg/kg/injection, schedule: Q04DX003 (ip), vehicle: saline): 6 of 6

SMILES: COC(=O)C1=CO[C@@H](C)[C@@H]2CN3CCc4c([nH]c5cc(OC)ccc45)[C@@H]3C[C@H]12
- survivor count [6]: 5 of 5

SMILES: OC(CCC(O)(C(F)(F)F)C(F)(F)F)(C(F)(F)F)C(F)(F)F
- survivor count [5]: 0 of 5
- survivor count [6]: 0 of 5

SMILES: CCN(CC)CCN(CC)CC.O.[Cu+2].[O-][Cl+3]([O-])([O-])O
- survivor count (dose: 50.0 mg/kg/injection, schedule: Q01DX009 (ip), vehicle: Klucel (hydroxypropylcellulose) (HPC)): 0 of 6
- survivor count [7]: 0 of 6
- survivor count [8]: 0 of 6

SMILES: CC(=O)Nc1ccc(S(=O)(=O)N/N=C/C(=O)O)cc1
- T/C (dose: 25.0 mg/kg/injection, schedule: Q01DX009 (ip), vehicle: other): 137 % of control
- T/C (dose: 50.0 mg/kg/injection, schedule: Q01DX009 (ip), vehicle: other): 146 % of control
- survivor count (dose: 100.0 mg/kg/injection, schedule: Q01DX009 (ip), vehicle: other): 5 of 6
- survivor count (dose: 200.0 mg/kg/injection, schedule: Q01DX009 (ip), vehicle: other): 3 of 6

SMILES: N#[N+]c1ccc2c(S(=O)(=O)Oc3ccc(C(=O)c4ccccc4)c(OS(=O)(=O)c4cccc5c([O-])c([N+]#N)ccc45)c3)cccc2c1[O-]
- survivor count [5]: 1 of 5
- survivor count [6]: 0 of 5

SMILES: [Cl][Sb]([Cl])([Cl])([c]1ccccc1)[c]1ccccc1
- survivor count [9]: 6 of 6
- survivor count [11]: 6 of 6
- survivor count (dose: 200.0 mg/kg/injection, schedule: Q01DX009 (ip), vehicle: saline): 4 of 6

SMILES: Nc1ccc2nc[nH]c(=O)c2c1
- survivor count (dose: 50.0 mg/kg/injection, schedule: Q01DX005 (ip), vehicle: Klucel (hydroxypropylcellulose) (HPC)): 3 of 5 and 4 of 5
- survivor count (dose: 100.0 mg/kg/injection, schedule: Q01DX005 (ip), vehicle: Klucel (hydroxypropylcellulose) (HPC)): 1 of 5
- survivor count (dose: 200.0 mg/kg/injection, schedule: Q01DX005 (ip), vehicle: Klucel (hydroxypropylcellulose) (HPC)): 0 of 5

SMILES: N#CC(C#N)=CNCC1CC1
- survivor count [12]: 3 of 6
- survivor count [13]: 0 of 6

SMILES: Cc1cc(C)c(N=Cc2cccs2)c(C)c1
- survivor count [11]: 6 of 6

SMILES: CN(C)c1ccc(/C=[N+](\[O-])C(C)(C)CO)cc1
- survivor count [1]: 6 of 6

SMILES: COc1ccc(-n2cnc3[nH]ncc3c2=O)cc1
- survivor count (dose: 60.0 mg/kg/injection, schedule: Q01DX005 (ip), vehicle: Klucel (hydroxypropylcellulose) (HPC)): 6 of 6
- survivor count [12]: 6 of 6
- survivor count [13]: 0 of 6
